For at least one entry, the source does not settle the construct or the ends of the probe. The comparison behind a weaker result is the experiment's own reference, which may not be listed here. At least one verdict rests on a figure or table, not on a statement of the authors. Tags and fusion partners may be left off the protein sequences shown.
Biological target: T1, human DNA topoisomerase IB (htop1), Prospec ENZ-306 (human) (UniProt P11387)
T1 sequence (looked up, limits assumed): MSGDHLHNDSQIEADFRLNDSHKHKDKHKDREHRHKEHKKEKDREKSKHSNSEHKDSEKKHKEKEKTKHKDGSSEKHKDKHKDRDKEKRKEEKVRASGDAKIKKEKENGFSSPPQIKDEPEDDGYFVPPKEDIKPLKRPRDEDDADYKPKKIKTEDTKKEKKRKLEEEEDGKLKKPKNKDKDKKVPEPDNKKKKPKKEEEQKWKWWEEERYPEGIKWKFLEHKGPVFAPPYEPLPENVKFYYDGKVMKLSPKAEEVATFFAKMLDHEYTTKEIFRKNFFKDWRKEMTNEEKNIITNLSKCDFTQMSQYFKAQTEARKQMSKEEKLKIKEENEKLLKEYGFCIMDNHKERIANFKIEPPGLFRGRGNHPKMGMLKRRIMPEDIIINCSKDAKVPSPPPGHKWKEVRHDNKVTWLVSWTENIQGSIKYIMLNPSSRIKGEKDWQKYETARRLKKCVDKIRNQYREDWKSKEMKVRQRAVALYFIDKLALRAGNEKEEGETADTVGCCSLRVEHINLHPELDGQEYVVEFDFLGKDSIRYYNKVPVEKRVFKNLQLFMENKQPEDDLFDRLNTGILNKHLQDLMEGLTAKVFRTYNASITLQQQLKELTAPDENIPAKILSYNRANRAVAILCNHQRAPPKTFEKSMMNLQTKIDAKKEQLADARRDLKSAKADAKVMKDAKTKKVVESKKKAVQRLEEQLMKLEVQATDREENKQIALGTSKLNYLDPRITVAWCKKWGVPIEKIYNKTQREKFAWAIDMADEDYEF
Assay: covalent suicide complex (cleavage, denaturing PAGE after trypsin)
Settings: 5' phosphate on CP25, commercial protein

“GAAAAAAGACTTAG / TAAAAATTTTTCTAAGTCTTTTTTC [suicide substrate SS (CL14-FITC/CP25-P)]”: binds more weakly (100 uM membranoid G pre-incubated, cleavage inhibited); binds (DMSO, no membranoid G).

— paper PMC9132426
